The list shows a part of the results.

The target of the experiment is T1, OsSMF1 (Oryza sativa, UniProt Q6ZLB0 1-436).
T1 sequence: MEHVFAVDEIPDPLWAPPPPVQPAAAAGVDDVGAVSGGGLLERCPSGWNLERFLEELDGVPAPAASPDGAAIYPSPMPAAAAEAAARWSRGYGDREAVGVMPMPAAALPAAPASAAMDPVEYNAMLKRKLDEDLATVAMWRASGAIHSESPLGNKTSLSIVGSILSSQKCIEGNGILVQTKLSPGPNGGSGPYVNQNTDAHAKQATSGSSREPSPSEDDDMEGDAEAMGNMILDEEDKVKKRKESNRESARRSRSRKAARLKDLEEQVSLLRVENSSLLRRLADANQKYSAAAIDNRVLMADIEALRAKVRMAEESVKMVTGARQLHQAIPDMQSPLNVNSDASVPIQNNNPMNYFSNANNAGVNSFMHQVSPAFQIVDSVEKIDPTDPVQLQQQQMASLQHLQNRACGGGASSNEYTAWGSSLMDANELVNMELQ
In words: protein-binding microarray (RPBM); PBS, 2% BSA, 51.3 ng/ul salmon testes DNA, 50 uM zinc acetate, 200 nM TF, 25 C, 1 h; high values mean tight binding. To be noted: protein: recombinant; tags: N-terminal polyhistidine and DsRed monomer fusion (pET32a); chain copies: 2; label: CyDye5-dUTP incorporated in the synthesized complementary strand; 3' TTTTT single-stranded linker to array surface; dsDNA, one strand shown. The method, boiled down: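 In PBS with 2% BSA, salmon testes DNA and 50 µM zinc acetate, 200 nM protein was incubated on a custom Agilent array at 25 °C for 1 h and then washed off. The array had been made double-stranded by primer extension with Cy5-dUTP and blocked with 2% BSA. The proteins were transcription factors fused N-terminally to polyhistidine and DsRed, expressed in E. coli BL21-CodonPlus and purified on Ni–NTA. The binding signal is per-feature fluorescence intensity (arbitrary units) from an Axon 4000B scanner.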
Regarding “CTAATTACGTCATGATTTGACAATGTGGTGTGGTGCTACACGGAGTCACCTAGTGCAG”, the binding signal is 6670 fluorescence intensity (a.u.). To “CAACCTGGCACCACTTGAGAACACGCAAGCTTGGCTCTTGCGGAGTCACCTAGTGCAG” belongs 3710 fluorescence intensity (a.u.); to “GGAAGAGATAAGAGGGTGACGAGGACTCAGATCGATGCGCCGGAGTCACCTAGTGCAG”, 4350 fluorescence intensity (a.u.); to “ACTTTAAAATGACCACGCCATACAGTTATTACAGCGATAACGGAGTCACCTAGTGCAG”, 3310 fluorescence intensity (a.u.). Then “TGATGATGACATGCTGATCGGTTCATCTGTAAACGAGTGTCGGAGTCACCTAGTGCAG”, with 3360 fluorescence intensity (a.u.). For “AAAGGGGATCTCTGGTCTCGCCGAACCGCAACCCAACCCACGGAGTCACCTAGTGCAG”, the binding signal is 3310 fluorescence intensity (a.u.).

On to “AGGCTTTCGCTATGACTTGTCCCCTGGAAAGGTCTATTTACGGAGTCACCTAGTGCAG”, for which the binding signal is 6100 fluorescence intensity (a.u.). Turning to “AATGTGCCGGCCATGGTAGGGCCACGCTGGCCAGTCACACCGGAGTCACCTAGTGCAG”, the binding signal was 3720 fluorescence intensity (a.u.). Take “CGGTCCGGGCGATTTGACCGGTCAAAAGGCGTGGCCACGACGGAGTCACCTAGTGCAG”: the binding signal is 3850 fluorescence intensity (a.u.). To “GTATTGAGAATTGTATGACTAATCAATGTTGCCTTACTTACGGAGTCACCTAGTGCAG” belongs 5200 fluorescence intensity (a.u.); to “TTTCCGTGCGGGAGGGATTAGTTCCCATCGCTGGAATCCGCGGAGTCACCTAGTGCAG”, 26200 fluorescence intensity (a.u.); to “ACCACAGCAGATTTAGTTTAGGAATTCTGACATGTATCCACGGAGTCACCTAGTGCAG”, 3760 fluorescence intensity (a.u.). Take “AAAACGTAAATGTACAAGATTAAAGAAACATAGCTATGTTCGGAGTCACCTAGTGCAG”: the binding signal was 29000 fluorescence intensity (a.u.).

With “TCCATCACTGGGCTATAAGGTTTCAAATTTGTGCATTAAACGGAGTCACCTAGTGCAG”, the binding signal was 19700 fluorescence intensity (a.u.). Then “CGGTGGCTCGCGTGAGGAGGCGAGGCGGGCCTGGGCATGGCGGAGTCACCTAGTGCAG”, with 3420 fluorescence intensity (a.u.); and “GACTAATCACAATGCATACGTCAGATGAAGCGTGCGTAGCCGGAGTCACCTAGTGCAG”, with 4930 fluorescence intensity (a.u.). As to “TTGCAAAATCTACAGCATCCACGCCACGGAAGAGCAGATCCGGAGTCACCTAGTGCAG”, the binding signal is 4440 fluorescence intensity (a.u.). Then “TAATATGAGGAAGTGAGCTCGGTGTAACATCGTGTCACTGCGGAGTCACCTAGTGCAG”, with 3290 fluorescence intensity (a.u.); and “AAGTAGTGTCTATGGTGCCATGTCAATAGGACATCATAATCGGAGTCACCTAGTGCAG”, with 3920 fluorescence intensity (a.u.); and “AATCTTCTGGCGTAACAATGTGAAGGATAAACAAGTGGGTCGGAGTCACCTAGTGCAG”, with 3160 fluorescence intensity (a.u.). Then “GCACGGCGTGGCGGTCAATTATCGCCTCTACACCGTCTCGCGGAGTCACCTAGTGCAG”, with 3190 fluorescence intensity (a.u.). To “AACCAGCAACTGGGCCGTGCTGACGTAAGGCCCATACAACCGGAGTCACCTAGTGCAG” belongs 14800 fluorescence intensity (a.u.); to “CATTCAGCCGACACGCCTCTCTCTCTCTCTCCGCTGCTGCCGGAGTCACCTAGTGCAG”, 3360 fluorescence intensity (a.u.). In the case of “GAAGCCAGCAGAGCAGACGAGGAAACCGAGGCTCCAGGGGCGGAGTCACCTAGTGCAG”, the binding signal was 14100 fluorescence intensity (a.u.). As for “TGCTGTCTGTTATGATACATCATACATAAGCTGACTGGATCGGAGTCACCTAGTGCAG”, the binding signal is 4650 fluorescence intensity (a.u.). Then “TTCATTAATTAATAATACTAGCCTAGTGGTGACACCACCCCGGAGTCACCTAGTGCAG”, with 4060 fluorescence intensity (a.u.); and “CCCACTGCCTCGCTGCTGACCTCGTGGCTTTGTTGGCCTCCGGAGTCACCTAGTGCAG”, with 3550 fluorescence intensity (a.u.); and “TAGATTTTAATATGCTTCGTCATGGACCACGAAATTAAATCGGAGTCACCTAGTGCAG”, with 3150 fluorescence intensity (a.u.). For “AGTCGCGACCCACTCCATCGGTCCCAACCCTCTGTCTTCTCGGAGTCACCTAGTGCAG”, the binding signal is 22700 fluorescence intensity (a.u.).

Take “ACAGGTGGGGCTCACCTGTCGGCGTCCCGGGGAGAGAGGGCGGAGTCACCTAGTGCAG”: the binding signal is 3250 fluorescence intensity (a.u.). Then “ATTAATACCTGGTCCCACATGTCATACACACGCTGCGTCTCGGAGTCACCTAGTGCAG”, with 3630 fluorescence intensity (a.u.). Consider “CGCAACGACGTGGCTACCTCGATGCGTGACGTCCCTGGCCCGGAGTCACCTAGTGCAG”, for which the binding signal was 7230 fluorescence intensity (a.u.). To “TTGCTAGTTGGTACAAAGTAAGCATGCAACACTTGTATGCCGGAGTCACCTAGTGCAG” belongs 42200 fluorescence intensity (a.u.). To “AAGTTGTCTTCTCCAATCTCCACTCCCCACCCATCGATCACGGAGTCACCTAGTGCAG” belongs 12800 fluorescence intensity (a.u.); to “AGAGGGGTGGCCTCACAAATGTGATGTGGTATGTTCCTATCGGAGTCACCTAGTGCAG”, 3900 fluorescence intensity (a.u.); to “ACTTATCCTGCAACTGTACCTGCTCTGACACGACCATTCCCGGAGTCACCTAGTGCAG”, 3750 fluorescence intensity (a.u.). Then “AATGAGTAACTTTCTGCTTGTGTGTCACTCTACTCTTTGGCGGAGTCACCTAGTGCAG”, with 5400 fluorescence intensity (a.u.); and “GCTCAGCATCTTCGAATCCTCTTCCGCCGCCAGCATTCTCCGGAGTCACCTAGTGCAG”, with 10600 fluorescence intensity (a.u.). Regarding “ACTGATCATCTCTCCGACTCACCAGTCACCACCACTTGTCCGGAGTCACCTAGTGCAG”, the binding signal was 3220 fluorescence intensity (a.u.). To “GCTGATCGACACGTGTGCTAAGTATTACACACCTGGTAAGCGGAGTCACCTAGTGCAG” belongs 12800 fluorescence intensity (a.u.); to “CACATTCGGCACCGCCCTCCGAAGCGCGACACGTGGCCGTCGGAGTCACCTAGTGCAG”, 13100 fluorescence intensity (a.u.); to “CCGGCAAGCGGCGCGTGGCGAAGGTGATGACGGTGGACGGCGGAGTCACCTAGTGCAG”, 5350 fluorescence intensity (a.u.).

The record behind these values is PMC7819943, “Rice protein-binding microarrays: a tool to detect cis-acting elements near promoter regions in rice”.
